# Results are given in words; binding and its absence hold for the method and conditions named. In cells and extracts the contact can be indirect. Some binding calls cover weakened binding; strength is not graded here.
# Protein sequences, listed by entry. Tags and fused reporters are not part of them.
# UniProt Q9H9S0: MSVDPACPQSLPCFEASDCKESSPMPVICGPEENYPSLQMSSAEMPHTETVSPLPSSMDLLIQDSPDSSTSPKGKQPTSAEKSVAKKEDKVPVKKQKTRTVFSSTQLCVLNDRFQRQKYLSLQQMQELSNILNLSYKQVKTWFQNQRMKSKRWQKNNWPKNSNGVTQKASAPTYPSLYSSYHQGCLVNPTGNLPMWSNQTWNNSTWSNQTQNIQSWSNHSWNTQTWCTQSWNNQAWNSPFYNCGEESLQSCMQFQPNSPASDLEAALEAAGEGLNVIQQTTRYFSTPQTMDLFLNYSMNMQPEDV
# UniProt Q01860: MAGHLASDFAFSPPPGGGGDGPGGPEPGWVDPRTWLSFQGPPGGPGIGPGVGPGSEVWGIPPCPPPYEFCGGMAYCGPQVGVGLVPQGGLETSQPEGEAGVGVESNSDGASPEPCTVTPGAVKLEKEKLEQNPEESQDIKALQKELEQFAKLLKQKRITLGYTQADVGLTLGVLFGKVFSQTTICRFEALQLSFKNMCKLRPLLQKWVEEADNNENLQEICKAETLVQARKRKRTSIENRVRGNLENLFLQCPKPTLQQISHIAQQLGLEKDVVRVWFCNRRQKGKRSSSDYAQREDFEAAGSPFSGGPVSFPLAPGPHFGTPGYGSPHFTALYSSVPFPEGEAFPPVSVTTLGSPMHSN
# UniProt P48431: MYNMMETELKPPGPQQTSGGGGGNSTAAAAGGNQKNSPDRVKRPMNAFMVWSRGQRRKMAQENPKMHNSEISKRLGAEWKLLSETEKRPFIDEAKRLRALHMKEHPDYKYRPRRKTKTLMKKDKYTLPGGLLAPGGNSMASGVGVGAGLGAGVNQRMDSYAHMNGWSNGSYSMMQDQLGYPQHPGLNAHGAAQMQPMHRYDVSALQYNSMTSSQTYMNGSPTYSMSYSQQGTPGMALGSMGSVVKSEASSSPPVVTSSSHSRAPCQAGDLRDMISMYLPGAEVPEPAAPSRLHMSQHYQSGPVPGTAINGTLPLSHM
# Molecular target: T1, POZ/BTB and AT hook containing zinc finger 1 (PATZ1) (human (endogenous in H1 hESCs)) (UniProt Q9HBE1)
# T1 sequence: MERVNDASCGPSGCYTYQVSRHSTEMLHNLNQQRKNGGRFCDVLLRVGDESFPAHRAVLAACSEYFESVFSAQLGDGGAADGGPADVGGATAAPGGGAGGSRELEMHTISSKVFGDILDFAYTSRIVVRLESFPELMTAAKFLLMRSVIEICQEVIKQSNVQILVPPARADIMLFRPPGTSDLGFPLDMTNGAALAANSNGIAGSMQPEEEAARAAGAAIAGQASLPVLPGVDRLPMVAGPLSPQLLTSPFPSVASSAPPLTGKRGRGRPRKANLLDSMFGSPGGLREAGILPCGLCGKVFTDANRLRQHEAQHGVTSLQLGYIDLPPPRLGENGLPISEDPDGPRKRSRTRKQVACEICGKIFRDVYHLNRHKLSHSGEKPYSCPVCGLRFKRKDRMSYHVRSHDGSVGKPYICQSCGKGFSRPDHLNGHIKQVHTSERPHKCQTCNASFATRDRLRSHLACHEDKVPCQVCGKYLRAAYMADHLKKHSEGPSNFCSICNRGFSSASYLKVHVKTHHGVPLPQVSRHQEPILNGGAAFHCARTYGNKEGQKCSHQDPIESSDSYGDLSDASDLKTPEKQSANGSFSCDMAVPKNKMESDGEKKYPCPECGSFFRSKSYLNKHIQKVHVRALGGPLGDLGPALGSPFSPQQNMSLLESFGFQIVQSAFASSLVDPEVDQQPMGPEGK
# Assay: co-IP; endogenous proteins, cells lysed in NP40 buffer with protease inhibitor cocktail; protein fraction incubated with Dynabeads-coupled primary antibodies overnight at 4 C; eluted by boiling in 2x SDS loading buffer, western blot
row,binding,Substance
1,binds,NANOG (from UniProt Q9H9S0 1-305)
2,binds,OCT4 (from UniProt Q01860 1-360)
3,binds,SOX2 (from UniProt P48431 1-317)

# From paper PMC10878140
